For at least one compound, name, drawing or mass did not settle the structure.
Tested on: new blood vessel growth from isolated rat aorta fragments
Test: rat aorta fragment vessel outgrowth (anti-angiogenic) assay in fibrin gel
Format: cell-based
Experimental: A potentially non-toxic method of treating cancer is to inhibit angiogenesis. The human anti-angiogenic and therefore antiproliferative action of drugs can be assessed by many methods well known in the prior art. […] Briefly, thoracic aortas were excized from 3-9 month-old female Fischer rats, cross-sectioned at 1 mm intervals and embedded individually in 0.5 ml of a fibrin gel containing 5 μg/ml of aprotinin (to prevent fibrinolysis) in each well of a 48-well culture plate. Immediately after vessel embedding, 0.5 ml/well of medium M199, supplemented with 20% foetal calf serum, 0.1% E-aminocaproic acid, 1% L-glutamine and antibiotics, was added. Each test compound (10 mg/ml, dissolved in DMSO) was added to the medium (maximum final concentration of test compound 100 μg/ml) and each treatment was performed in six wells. Control cultures received medium containing 0.1% DMSO but without any test compound. […] Vessels were cultured at 37° C. in 5% CO2 in air for 5 days and the medium, with or without test compound, was changed on day 4. Vessel growth was quantified manually under 40× magnification on day 5, with growth being estimated as the percentage of the field (×40) around the vessel fragment that was occupied by vessel outgrowths. […]

c1ccc(-c2nccc3[nH]cnc23)nc1 [Compound 2-pyridine, 4-(pyrid-2-yl)-1H-imidazo[4,5-c]pyridine]
anti-angiogenic activity in words: much greater activity than the natural product

From US20110152313A1 (MACQUARIE UNIVERSITY, priority 2008, published 2011)
